According to US8653046B2, “Controlling transgene expression across the skin” (ETH Zurich, priority 2009, dated 2014):
At least one structure is not confirmed: it was looked up by name or label, or the drawing left a doubt.

Amino acid sequences for entries named in this document (tags omitted).
UniProt Q9AIU0, whole entry, added parts left off: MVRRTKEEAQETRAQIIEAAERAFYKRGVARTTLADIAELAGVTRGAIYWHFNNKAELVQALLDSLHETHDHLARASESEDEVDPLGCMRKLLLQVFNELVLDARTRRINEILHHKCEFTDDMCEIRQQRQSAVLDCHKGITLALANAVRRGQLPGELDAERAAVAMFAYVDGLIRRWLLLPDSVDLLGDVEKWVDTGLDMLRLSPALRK

Molecular target: TtgA1 (TtgR-VP16) (Pseudomonas putida, UniProt Q9AIU0)
Assay: PEACE: SEAP expression after transient co-transfection of pMG10 (PTtgR1-SEAP-pA) and pMG11 (PSV40-TtgA1-pA)
Format: cell-based
Settings: CHO-K1, 0, 25, 50 μM, 48 h
Description: Living in the plant rhizosphere, Pseudomonas putida DOT-T1E has evolved resistance to a variety of plant-derived antimicrobials, which is triggered by phloretin-induced release of TtgR protein from the operator (OTtgR) of its target promoter and subsequent induction of a broadly specific TtgABC efflux pump (Teran W. et al., loc. cit.).
Three different transactivators are designed, harboring either the VP16 (TtgA1; pMG11, TtgR-VP16) (Triezenberg S. J. et al., loc. cit.), the p65 (TtgA2; pMG18, TtgR-p65) (Urlinger S., et al., 2000, Gene 247(1-2):103-110) or the human E2F4 (TtgA3; pMG19, TtgR-E2F4) (Akagi K., Kanai M., Saya H., Kozu T., Berns A., 2001, Nucleic Acids Res 29(4):e23) transactivation domains. pMG11, pMG18 or pMG19 are co-transfected with pMG10 (PTtgR1-SEAP-pA) into CHO-K1, HEK-293 as well as primary human fibroblasts and keratinocytes, and SEAP expression is profiled after 48 h of cultivation in the presence or absence of 50 μM phloretin. […]

## O=C(CCc1ccc(O)cc1)c1c(O)cc(O)cc1O[C@@H]1O[C@H](CO)[C@@H](O)[C@H](O)[C@H]1O [phloridzin]
  PEACE regulation performance (SEAP production): able to regulate but not fully repress SEAP production
